Source: PMC5072578
No constants are given. Whether binding was seen depends on the method and setting. Binding seen in cells or lysates may run through a third protein. Some entries that bind do so weakly or less than the wild type. For some assays here: Sequences can lack the tags named with a protein.

Amino acid sequences for entries named in this document (tags omitted).
UniProt P42224: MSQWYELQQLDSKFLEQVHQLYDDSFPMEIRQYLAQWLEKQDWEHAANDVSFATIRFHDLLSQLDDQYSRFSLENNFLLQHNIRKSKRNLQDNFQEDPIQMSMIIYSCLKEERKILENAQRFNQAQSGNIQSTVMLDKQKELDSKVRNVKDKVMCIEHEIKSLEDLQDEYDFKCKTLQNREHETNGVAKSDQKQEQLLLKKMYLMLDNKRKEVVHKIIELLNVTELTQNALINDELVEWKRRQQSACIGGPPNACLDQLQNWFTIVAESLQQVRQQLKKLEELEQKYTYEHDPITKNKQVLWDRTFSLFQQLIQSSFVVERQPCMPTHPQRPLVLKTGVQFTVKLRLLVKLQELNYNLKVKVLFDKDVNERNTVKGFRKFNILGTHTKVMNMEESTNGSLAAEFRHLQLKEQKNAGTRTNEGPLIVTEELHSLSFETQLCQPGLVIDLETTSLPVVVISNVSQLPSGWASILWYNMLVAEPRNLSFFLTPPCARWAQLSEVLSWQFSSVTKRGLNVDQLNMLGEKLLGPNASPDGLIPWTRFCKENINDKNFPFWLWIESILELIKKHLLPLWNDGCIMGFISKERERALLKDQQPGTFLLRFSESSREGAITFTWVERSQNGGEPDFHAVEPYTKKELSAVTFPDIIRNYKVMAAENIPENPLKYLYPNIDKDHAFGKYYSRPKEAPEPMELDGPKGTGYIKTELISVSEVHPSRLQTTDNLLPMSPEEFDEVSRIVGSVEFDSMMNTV

T1: Flag-NLK (Nemo-like kinase) (mouse) (UniProt O54949)
T1 sequence: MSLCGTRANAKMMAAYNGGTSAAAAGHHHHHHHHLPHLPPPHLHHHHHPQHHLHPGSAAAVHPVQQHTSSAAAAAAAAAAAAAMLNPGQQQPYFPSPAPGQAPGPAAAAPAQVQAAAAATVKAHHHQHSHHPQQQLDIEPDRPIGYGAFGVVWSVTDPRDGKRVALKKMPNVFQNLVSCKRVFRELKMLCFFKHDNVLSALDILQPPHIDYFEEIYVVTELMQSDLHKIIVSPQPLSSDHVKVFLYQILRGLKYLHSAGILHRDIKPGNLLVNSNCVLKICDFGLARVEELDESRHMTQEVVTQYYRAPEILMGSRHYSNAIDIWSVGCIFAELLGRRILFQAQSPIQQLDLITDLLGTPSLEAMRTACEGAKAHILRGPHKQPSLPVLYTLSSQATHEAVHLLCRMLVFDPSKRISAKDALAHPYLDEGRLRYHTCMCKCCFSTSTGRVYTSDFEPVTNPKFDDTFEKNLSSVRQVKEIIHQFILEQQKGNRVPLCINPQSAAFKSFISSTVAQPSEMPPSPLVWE

T2: NLK expressed from a recombinant adenovirus in neonatal rat cardiac myocytes (mouse) (UniProt O54949)
T2 sequence: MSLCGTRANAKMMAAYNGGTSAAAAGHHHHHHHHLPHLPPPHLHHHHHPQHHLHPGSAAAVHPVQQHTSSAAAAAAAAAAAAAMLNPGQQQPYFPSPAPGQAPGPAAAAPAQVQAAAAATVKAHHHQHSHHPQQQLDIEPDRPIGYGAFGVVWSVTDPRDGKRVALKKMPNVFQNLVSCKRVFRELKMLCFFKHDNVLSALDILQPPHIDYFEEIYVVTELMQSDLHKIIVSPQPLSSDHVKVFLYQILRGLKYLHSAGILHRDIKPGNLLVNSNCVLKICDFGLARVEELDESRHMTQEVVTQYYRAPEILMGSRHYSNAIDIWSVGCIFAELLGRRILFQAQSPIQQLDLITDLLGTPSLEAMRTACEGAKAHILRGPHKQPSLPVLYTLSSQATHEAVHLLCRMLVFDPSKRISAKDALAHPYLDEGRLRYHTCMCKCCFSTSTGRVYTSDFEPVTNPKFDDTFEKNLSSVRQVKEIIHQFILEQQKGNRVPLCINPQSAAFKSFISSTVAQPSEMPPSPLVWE


Experiments:
[1] = biological target: T1, Flag-NLK (Nemo-like kinase) (mouse); test: co-IP; HEK293 cells transfected with Flag-NLK for 48 hours, lysed, anti-Flag M2 magnetic beads; endogenous proteins detected by Western blotting
[2] = biological target: T2, NLK expressed from a recombinant adenovirus in neonatal rat cardiac myocytes (mouse); test: co-IP; neonatal rat cardiac myocytes infected with NLK adenovirus for 24 hours; lysate with NLK antibody or normal rabbit IgG for 4 hours, protein A magnetic beads for 2 hours; Western blotting for Stat1

| binding [1] | binding [2] | Molecule |
| --- | --- | --- |
| binds | – | Stat1 (endogenous, HEK293 cells) (from UniProt P42224 1-750) |
| – | binds | Stat1 (endogenous, neonatal rat cardiac myocytes) (protein, UniProt Q9QXK0 1-749) MSQWFELQQLDSKFLEQVHQLYDDSFPMEIRQYLAQWLEKQDWEHAAYDVSFATIRFHDLLSQLDDQYSRFSLENNFLLQHNIRKSKRNLQDNFQEDPVQMSMIIHNCLKEERKILENAQRFNQAQEGNIQNTVMLDKQKELDSKVRNVKDQVMCIEHEIKTLEDLQDEYDFKCKTSQNRESEANGVAKSDQKQEQLLLHKMFLMLDNKRKEIIHKIRELLNSIELTQNTLINDELVEWKRRQQSACIGGPPNACLDQLQSWFTIVAESLQQVRQQLKKLEELEQKFTYEQDPITKNKQVLSDRTFVLFQQLIQSSFVVERQPCMPTHPQRPLVLKTGVQFTVKLRLLVKLQELNYNLKVKVSFDKDVNEKNTVKGFRKFNILGTHTKVMNMEESTNGSLAAEFRHLQLKEQKNAGNRTNEGPLIVTEELHSLSFETQLCQPGLVIDLETTSLPVVVISNVSQLPSGWASILWYNMLVTEPRNLSFFLNPPCAWWSQLSEVLSWQFSSVTKRGLNADQLSMLGEKLLGPNAGPDGLIPWTRFCKENINDKNFSFWPWIDTILELIKKHLLCLWNDGCIMGFISKERERALLKDQQPGTFLLRFSESSREGAITFTWVERSQNGGEPDFHAVEPYTKKELSAVTFPDIIRNYKVMAAENIPENPLKYLYPNIDKDHAFGKYYSRPKEAPEPMELDDPKRTGYIKTELISVSEVHPSRLQSTENLLPMSPEEFDEMSKIVGSEFDSMMSAV |
